Experimental data from paper doi:10.1101/2020.07.20.211441.
These are yes or no findings as the source states them, for the method shown. In cells and extracts the contact can be indirect. A yes stands for co-enrichment or nearness to the bait. Other partners may have been found. Tags and fused reporters may be left off the sequences shown.

Amino acid sequences for entries named in this document (tags omitted). Residues count along the entry.
UniProt Q9QY81, residues 27-1886: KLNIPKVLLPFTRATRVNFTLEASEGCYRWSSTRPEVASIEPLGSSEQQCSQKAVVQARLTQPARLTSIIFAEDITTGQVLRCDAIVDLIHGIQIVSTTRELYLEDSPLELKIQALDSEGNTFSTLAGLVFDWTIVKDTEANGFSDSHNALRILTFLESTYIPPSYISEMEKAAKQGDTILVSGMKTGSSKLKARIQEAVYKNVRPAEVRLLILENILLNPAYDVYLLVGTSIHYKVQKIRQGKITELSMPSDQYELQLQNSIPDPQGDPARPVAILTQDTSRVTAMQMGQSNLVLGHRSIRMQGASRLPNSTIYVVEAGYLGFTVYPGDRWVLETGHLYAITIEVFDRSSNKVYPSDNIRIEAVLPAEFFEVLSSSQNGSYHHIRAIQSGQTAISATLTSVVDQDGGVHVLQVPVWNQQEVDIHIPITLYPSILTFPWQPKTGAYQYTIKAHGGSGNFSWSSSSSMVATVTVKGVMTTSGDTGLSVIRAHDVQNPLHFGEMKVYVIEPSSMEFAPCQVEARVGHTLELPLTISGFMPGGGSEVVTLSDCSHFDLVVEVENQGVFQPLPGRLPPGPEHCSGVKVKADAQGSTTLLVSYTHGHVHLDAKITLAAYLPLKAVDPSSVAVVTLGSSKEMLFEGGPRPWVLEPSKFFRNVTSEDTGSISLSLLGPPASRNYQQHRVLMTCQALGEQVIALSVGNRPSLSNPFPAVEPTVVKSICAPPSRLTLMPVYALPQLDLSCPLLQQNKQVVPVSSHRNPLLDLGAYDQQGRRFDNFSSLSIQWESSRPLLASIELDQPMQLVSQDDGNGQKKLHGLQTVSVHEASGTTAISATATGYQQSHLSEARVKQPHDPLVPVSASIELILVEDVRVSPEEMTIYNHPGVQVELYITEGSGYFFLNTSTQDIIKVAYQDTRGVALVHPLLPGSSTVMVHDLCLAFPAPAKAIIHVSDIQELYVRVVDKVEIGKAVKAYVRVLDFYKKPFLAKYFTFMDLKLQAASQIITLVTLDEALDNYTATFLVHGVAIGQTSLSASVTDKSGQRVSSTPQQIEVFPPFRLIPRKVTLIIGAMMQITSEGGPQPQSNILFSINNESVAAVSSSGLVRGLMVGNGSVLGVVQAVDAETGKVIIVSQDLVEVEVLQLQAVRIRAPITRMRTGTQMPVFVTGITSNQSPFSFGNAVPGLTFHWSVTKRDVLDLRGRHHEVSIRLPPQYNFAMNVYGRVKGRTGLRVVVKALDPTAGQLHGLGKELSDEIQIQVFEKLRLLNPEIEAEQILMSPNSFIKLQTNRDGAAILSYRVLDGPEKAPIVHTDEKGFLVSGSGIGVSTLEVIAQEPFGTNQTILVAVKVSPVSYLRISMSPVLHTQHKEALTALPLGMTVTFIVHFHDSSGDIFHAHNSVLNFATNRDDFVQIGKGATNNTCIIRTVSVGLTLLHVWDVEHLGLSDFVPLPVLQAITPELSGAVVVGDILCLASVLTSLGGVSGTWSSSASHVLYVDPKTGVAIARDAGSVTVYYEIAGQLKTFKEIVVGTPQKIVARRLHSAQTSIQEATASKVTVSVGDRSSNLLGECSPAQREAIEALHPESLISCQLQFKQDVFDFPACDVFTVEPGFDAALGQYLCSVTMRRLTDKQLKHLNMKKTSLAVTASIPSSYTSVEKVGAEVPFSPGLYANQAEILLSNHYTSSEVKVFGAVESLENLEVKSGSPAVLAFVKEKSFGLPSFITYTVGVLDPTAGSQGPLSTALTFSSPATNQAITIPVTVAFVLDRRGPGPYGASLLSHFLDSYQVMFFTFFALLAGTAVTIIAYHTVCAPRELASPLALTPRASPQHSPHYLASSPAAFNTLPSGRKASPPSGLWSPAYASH
UniProt Q8BTZ4: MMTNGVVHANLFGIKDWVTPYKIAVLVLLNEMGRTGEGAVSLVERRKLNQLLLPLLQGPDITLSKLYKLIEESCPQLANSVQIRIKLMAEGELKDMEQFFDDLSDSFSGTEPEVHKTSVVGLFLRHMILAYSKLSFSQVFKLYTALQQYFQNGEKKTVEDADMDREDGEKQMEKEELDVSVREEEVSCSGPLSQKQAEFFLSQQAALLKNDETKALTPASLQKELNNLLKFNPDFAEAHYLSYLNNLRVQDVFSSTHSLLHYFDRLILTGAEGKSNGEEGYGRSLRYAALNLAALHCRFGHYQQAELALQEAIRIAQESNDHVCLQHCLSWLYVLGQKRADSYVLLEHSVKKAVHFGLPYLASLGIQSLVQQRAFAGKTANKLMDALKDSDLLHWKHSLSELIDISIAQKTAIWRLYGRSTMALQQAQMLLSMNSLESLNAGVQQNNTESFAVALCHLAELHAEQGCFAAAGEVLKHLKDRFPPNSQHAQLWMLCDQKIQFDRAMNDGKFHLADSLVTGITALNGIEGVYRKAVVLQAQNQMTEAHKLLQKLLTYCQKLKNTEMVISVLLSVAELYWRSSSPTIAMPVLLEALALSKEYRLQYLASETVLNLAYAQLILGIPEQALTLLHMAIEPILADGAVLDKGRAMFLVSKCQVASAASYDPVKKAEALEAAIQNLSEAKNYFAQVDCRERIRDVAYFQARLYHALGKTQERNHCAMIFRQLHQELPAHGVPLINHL
UniProt Q9WVM3: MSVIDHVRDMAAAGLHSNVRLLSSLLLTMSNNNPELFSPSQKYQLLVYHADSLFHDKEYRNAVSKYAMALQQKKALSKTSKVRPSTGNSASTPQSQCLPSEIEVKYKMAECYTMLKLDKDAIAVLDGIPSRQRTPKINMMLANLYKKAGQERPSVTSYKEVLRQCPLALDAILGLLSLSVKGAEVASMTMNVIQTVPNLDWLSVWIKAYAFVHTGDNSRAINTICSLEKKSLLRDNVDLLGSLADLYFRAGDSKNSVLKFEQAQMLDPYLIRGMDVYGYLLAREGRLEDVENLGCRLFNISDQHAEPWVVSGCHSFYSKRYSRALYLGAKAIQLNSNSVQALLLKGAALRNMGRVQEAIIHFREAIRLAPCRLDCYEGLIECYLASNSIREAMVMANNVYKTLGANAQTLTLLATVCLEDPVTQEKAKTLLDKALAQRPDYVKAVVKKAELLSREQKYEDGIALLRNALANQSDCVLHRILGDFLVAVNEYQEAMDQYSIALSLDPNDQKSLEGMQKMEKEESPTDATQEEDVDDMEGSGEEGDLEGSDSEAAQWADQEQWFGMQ
UniProt Q8BZQ7: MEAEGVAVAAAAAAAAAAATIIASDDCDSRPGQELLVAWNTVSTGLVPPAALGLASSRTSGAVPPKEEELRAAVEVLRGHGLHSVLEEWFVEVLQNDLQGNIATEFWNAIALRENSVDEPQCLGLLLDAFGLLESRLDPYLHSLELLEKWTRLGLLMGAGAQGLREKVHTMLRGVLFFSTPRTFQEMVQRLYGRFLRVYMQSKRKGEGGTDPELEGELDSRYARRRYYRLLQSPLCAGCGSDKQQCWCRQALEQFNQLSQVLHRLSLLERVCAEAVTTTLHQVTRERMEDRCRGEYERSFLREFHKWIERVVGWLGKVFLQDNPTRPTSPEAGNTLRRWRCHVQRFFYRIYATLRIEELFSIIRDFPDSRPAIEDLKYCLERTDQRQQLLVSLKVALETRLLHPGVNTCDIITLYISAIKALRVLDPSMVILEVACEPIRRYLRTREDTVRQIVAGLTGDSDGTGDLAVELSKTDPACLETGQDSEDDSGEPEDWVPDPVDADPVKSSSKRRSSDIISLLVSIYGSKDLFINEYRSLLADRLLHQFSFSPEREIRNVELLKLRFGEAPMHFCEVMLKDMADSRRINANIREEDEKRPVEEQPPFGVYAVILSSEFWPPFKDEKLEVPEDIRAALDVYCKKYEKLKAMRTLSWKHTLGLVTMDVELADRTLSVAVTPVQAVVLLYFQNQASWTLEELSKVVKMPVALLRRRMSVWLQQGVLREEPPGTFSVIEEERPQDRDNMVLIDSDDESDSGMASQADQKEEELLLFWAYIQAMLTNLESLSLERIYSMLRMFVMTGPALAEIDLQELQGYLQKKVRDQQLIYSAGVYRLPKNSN
UniProt Q9R1K5: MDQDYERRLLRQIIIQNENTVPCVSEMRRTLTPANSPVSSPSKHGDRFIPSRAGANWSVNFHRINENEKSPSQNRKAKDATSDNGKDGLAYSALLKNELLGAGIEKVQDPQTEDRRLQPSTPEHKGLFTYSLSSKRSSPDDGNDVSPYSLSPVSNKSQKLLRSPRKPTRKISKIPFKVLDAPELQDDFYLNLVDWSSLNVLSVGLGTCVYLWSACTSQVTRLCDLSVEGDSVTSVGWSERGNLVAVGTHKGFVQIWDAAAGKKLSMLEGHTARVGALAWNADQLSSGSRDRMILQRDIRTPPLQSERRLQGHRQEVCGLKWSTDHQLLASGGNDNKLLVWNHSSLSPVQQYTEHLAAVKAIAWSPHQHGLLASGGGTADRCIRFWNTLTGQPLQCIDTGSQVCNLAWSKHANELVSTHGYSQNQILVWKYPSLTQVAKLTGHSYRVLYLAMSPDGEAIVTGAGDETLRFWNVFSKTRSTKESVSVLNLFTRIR
UniProt Q9CW03: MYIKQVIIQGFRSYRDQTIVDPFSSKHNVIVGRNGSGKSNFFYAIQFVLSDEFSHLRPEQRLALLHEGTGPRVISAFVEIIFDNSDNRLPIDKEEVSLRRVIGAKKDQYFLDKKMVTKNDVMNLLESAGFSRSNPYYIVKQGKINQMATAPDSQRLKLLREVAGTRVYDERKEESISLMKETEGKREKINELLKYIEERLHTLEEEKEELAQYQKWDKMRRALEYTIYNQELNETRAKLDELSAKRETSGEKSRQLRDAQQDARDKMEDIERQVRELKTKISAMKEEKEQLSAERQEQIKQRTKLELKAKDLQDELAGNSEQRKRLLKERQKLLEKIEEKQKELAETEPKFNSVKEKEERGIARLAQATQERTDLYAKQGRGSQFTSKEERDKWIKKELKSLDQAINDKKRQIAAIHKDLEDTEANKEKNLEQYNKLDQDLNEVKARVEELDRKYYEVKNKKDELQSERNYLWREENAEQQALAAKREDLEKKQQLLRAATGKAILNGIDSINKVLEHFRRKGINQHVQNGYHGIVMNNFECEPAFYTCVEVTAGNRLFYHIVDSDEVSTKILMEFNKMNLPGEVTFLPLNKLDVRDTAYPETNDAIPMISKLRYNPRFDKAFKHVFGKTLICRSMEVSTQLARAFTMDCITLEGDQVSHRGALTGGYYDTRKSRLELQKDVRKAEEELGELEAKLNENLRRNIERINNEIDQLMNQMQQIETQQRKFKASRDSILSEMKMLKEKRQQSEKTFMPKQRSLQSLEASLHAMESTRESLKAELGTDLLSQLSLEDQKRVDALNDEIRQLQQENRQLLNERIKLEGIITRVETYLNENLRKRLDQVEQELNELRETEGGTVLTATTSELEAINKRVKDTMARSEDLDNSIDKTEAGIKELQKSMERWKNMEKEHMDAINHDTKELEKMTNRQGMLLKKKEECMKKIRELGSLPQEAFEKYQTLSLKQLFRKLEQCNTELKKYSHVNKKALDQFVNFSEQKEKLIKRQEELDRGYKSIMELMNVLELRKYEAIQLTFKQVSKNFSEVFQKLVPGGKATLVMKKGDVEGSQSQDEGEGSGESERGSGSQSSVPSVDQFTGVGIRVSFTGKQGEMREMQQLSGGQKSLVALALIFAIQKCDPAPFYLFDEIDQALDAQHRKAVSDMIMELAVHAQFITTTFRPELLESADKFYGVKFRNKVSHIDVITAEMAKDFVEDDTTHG
UniProt A2A6Q5: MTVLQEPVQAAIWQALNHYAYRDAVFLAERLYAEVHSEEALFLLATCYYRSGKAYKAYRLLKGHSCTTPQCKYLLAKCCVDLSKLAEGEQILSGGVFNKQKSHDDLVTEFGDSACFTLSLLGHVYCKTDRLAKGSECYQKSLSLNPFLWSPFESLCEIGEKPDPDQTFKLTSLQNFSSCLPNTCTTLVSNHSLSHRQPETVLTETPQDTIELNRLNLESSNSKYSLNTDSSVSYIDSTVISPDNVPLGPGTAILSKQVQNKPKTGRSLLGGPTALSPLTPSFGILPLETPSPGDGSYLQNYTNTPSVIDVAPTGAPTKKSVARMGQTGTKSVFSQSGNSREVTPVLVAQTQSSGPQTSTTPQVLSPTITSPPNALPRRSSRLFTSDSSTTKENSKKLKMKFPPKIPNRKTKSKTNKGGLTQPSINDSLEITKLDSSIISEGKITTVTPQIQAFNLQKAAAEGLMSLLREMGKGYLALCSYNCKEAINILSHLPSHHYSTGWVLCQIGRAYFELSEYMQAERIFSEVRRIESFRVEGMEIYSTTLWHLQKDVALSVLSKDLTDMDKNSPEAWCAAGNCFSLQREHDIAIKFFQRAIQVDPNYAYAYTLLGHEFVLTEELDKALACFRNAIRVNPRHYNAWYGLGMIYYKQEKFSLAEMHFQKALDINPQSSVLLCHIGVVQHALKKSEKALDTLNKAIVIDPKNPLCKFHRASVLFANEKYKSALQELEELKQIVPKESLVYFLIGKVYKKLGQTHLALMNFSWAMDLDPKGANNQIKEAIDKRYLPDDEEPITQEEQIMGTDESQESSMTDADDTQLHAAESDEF

Target: T1, XPA-binding protein (XAB)-2, biotin-tagged knock-in (mouse) (UniProt Q9DCD2)
T1 sequence (chain, biotin on the Avitag (by the BirA ligase in vivo)): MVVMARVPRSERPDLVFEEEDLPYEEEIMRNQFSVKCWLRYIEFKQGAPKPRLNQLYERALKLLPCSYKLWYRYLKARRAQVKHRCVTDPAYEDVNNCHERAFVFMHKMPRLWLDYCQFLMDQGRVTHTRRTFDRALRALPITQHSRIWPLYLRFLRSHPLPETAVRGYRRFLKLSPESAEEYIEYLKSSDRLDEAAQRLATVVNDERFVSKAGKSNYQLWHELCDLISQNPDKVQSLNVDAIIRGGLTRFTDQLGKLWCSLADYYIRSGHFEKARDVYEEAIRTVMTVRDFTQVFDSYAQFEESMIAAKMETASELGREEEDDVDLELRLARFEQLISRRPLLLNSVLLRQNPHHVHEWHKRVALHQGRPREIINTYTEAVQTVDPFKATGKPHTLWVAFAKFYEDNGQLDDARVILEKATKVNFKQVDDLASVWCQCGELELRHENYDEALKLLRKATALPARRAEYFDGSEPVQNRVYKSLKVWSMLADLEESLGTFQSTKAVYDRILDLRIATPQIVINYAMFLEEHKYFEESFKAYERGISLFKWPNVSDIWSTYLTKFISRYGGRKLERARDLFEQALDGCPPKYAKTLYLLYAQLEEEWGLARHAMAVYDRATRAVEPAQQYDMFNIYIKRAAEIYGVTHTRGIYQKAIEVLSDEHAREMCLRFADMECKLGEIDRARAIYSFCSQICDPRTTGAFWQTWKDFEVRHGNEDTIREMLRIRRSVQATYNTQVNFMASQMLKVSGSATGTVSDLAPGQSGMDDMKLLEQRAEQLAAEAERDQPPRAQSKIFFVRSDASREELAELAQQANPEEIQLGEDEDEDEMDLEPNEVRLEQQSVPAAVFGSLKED
Test: affinity purification with mass spectrometry

BMS1 (from UniProt Q6PGF5 1-1284)
binding: binds

NUP210 (from UniProt Q9QY81 27-1886)
binding: binds

pre-mRNA-processing factor 19 (from UniProt Q99KP6 1-504)
binding: binds

ANAPC 5 (from UniProt Q8BTZ4 1-740)
binding: binds

NUP205 (mouse (endogenous in P15 liver))
binding: binds

ANAPC 7 (from UniProt Q9WVM3 1-565)
binding: binds

ANAPC 2 (from UniProt Q8BZQ7 1-837)
binding: binds

MDN1 (mouse (endogenous in P15 liver))
binding: binds

CDC23 (from UniProt Q8BGZ4 1-597)
binding: binds

ANAPC1 (from UniProt P53995 1-1944)
binding: binds

ANAPC 4 (from UniProt Q91W96 1-807)
binding: binds

FZR1 (from UniProt Q9R1K5 1-493)
binding: binds

WDR36 (mouse (endogenous in P15 liver))
binding: binds

SMC3 (from UniProt Q9CW03 1-1217)
binding: binds

CDC27 (from UniProt A2A6Q5 1-825)
binding: binds

B1: NUP133 (protein, UniProt Q8R0G9 1-1155)
chain: MFPSVSSPRTPGPGTRRGPLVGIGPTSTPRASRRGLSLGSAVNSPVLFSPAGRRSSVSSRGTPTRIFPHHSISESVNYDVRVFGSSLPVKIMEALTMAEADEQLSVHVDEGGWACLVCTEKLLIWKIAVSPVTKLSVCKELQLPPSDFHGSADLVALSYAATSGEVHSVQAVSVMVATKEGSIRYWPSLAREDTYSDTCVDLGGEKMCRFLTAVQGGSFILSSVGSQLVRLIPESSGKIHQHVLPQGQGMLSGIGRRVSSLFGILSPTSDLMLASVLWDRGGSSFYTLTSSNISKWELDDSSEKQVHSWDVHRTLKESITDAVWGSESNYEAIKEGVNIQYLDLKQNCDGLLILAAAWHLGDSPCLVYYSVITVEDNGNQMSDAVTVEVTQYNPPFQSEDLIACRLMVPNFSSQMTYLYMENAVFVCSTGTGKFSLPQEKIVFDTQGDGILGAGSCAGVPILFSRNSGLVSVTPRENVSLLAEDLEESLTSSVGGRGSESMVFETTTKNETVAHEDKTKLLKAAFLQYCRKDLGRAQIMADELFSSHTDLDSDPELDKAVTQISVDLIDDYPASDPRWAESVPQEAPGLSNTSLIILHQLEDKMKAHCLLVDFLHQVGLFRRLSSYPIRGTPMSTRLLLCEHAEKLSAAITLKNHHSRLPDLVNSAILLALNKRECEVPNSLTPADVFFREVSQVDTICECLLEHEEQVLREVALVSQEWAEVAIDVNTVLKDMLQAATHYRLNKSSMYSQEEVLGKEPEYVPWTATSGPSGIRTAVMRQHGIILKMVYPQADSKLRNVVMEQLVALIDCFLDSYVSQLKSLEKSSDQERYSSLEVEYLQKRSELLSPLLTLGQYPWAASLAEKYCDFDILVQMCEQTDNQARLQRYMTQFADQNFSDFLFRWYLEKGKRGKLLSQPISQHGQLANFLQAHEHLSWLHEINSQELEKAHTTLLGLANMETRYFAKKKTLLGLSKLAALASDISEDRLQEKIEAMAEQERFLLHQETLPEQLLTERQLSLSAMPVLTAPQLISLYICDENRRANEYDFKKALDLLEYIDEEEDVSIDDLKLEILCRALQRDDWSGSDGKDDPIEVSKDSVFVKILQKLIKDGIQLSEYLPEVTDLLRAEQLGSLKSNSYFEFVLKANYEYYVQGQM
binding: binds

B2: NUP153 (protein, UniProt E9Q3G8 1-1462)
chain: MASEAGGIGGGGGGGKIRTRRCHQGPVKPYQQGRPQHQGILSRVTESVKNIVPGWLQRYFNKSENACSCSPDADEVPPWPENREDEHAIYADENTNTDDGRITPDPAGSNTEEPSTTSTASNYPDVLTRPSLHRSHLNFSVLESPALHCQPSTSSAFPIGSSGFSLVKEIKDSTSQHDDDNISTTSGFSSRASEKDIAVSKNTSLPPLWSPEAERSHSLSQHTAISSKKPAFNLSAFGTLSTSLGNSSILKTSQLGDSPFYPGKTTYGGAAAAVRQNKVRSTPYQAPVRRQMKAKQLNAQSYGVTSSTARRILQSLEKMSSPLADAKRIPSAVSSPLNSPLDRSGIDNTVFQAKKEKVDSQYPPVQRLMTPKPVSIATNRTVYFKPSLTPSGDLRKTNQRIDKKNSTVDEKSISRQNREQESGFSYPNFSIPAANGLSSGVGGGGGKMRRERTHFVAPKPPENEEVEAPLLPQISLPISSSSLPTFSFSSPVTSASPSPVSSSQPLPNKVQMTSLGSTGSPVFTFSSPIVKSTQAAVLPPASIGFTFSVPLAKTEFSGSNSSSETVLSSSAQDITAVNSSSYKKRSAPCEDPFTPAKILREGSVLDILKTPGFASPKVDSPALQPTTTSSIVYTRPAISTFSSSGIEYGESLKAGSSWQCDTCLLQNKVTDNKCIACQAAKLPLKETAKQTGTGTPSKSDKPASTSGTGFGDKFKPAIGTWDCDTCLVQNKPEAVKCVACETPKPGTGVKRALTLTVASESPVTASSSTTVTTGTLGFGDKFKRPVGSWECPVCCVCNKAEDNRCVSCTSEKPGLVSASSSSPAPVSLSSGGCLGLDKFKKPEGSWDCEVCLVQNKADSAKCIACESAKPGTKSEFKGFGTSSSLNPAPSAFKFGIPSSSSGLSQTLTSTGNFKFGDQGGFKLGTSSDSGSTNTMNTNFKFSKPTGDFKFGVLSDSKPEEVKNDNKNDNFQFGSSSGLTNPASSAPFQFGVSTLGQQEKKEELPKSSPAGFSFGAGVNNPPNAAIDTTATSENKSGFNFGTLDTKSVSVTPFTYKTTEAKKEDAPATKGGFTFGKVGSSSLPSSSMFVLGRTEEKQQEPVTSTSLVFGKKADSEEPKCQPVFSFGNSEQTKDESSKPTFSFSVAKPSGKESEQLAKATFAFGNQTNTTTDQGAAKPVFSFLNSSSSSSSAPATSSSGGIFGSSTSSSNPPVAAFVFGQASNPVSSSAFGNAAESSTSQSLLFPQESEPATTSSTAPAASPFVFGTGASSNSVSSGFTFGATTTSSSSGSSFVFGTGHSAPSASPAFGANQTPTFGQSQGASQPNPPSFGSISSSTALFSAGSQPVPPPIFGTVSSSSQPPVFGQQPSQSAFGSGTANASSVFQFGSSTTNFNFTNNNPSGVFTFGASPSTPAASAQPSGSGVFSFSQSPASFTVGSNGKNMFSSSGTSVSGRKIKTAVRRKK
binding: binds

B3: NUP160 (protein, UniProt Q9Z0W3 1-1402)
chain: MAAAGSLERSFVELSGAERERPRHFREFTVCDIGTASAAFGTVKYSESAGGFYYVESGKLFSITRNRFIHWKTSGDTLELVEESLDLNLLNNAVRLKFQNYNILPGGVHVSETQNHVIILILTNQTVHRLILPHPSRMYRSELVTESQMQSIFTDIGKVDFRDPCNSQLIPSVPGLSPGSTTSAAWLSSDGEALFALPSASGGIFVLKLPPYDVPGIASVVELKQSSVMQRLLTGWMPTAIRGDHGPSDRALSLAVHCVEHDAFIFALCQDHKLRMWSYKDQMCLMVADMLEYVPVNKDLRLTAGTGHKLRLAYSPSMGLYLGIYMHAPKRGQFCVFQLVSTENNRYSLDHISSLFTSQETLVDFALTSTDIWALWHDAENQTIVKYINFEHNVAGQWNPVFMQPLPEEEIVIRDDQDPREMYLRSLFTPGHFINAALCKALQIFCRGTERNLDLSWNELKKEITLAVENELQGSVTEYEFSQDEFRTLQQEFWCKFYACVLQYQEALSHPLALHLNPVTNMVCLLKKGYLSFLVPSSLVDHLYLLPDEHLLTEDETTISDDADVARDVLCLIKCLRMIGESVTMDMAVLMETSCYNLQSPEKAAEHILEDLITIDVENVMEDICSKLQEIRNPVHAIGLLIREMDYETEVEMEKGFDPAQPLNVRMNLSQLYGSSTAGYIVCRGVYKIASTRFLICRDLLILQQLLTRLGDAVILGAGQLFQAQQDLLHRTAPLLLSYYLIKWASQCLATDVPVDTLESNLQHLSVLELTDSGALMANKLVSSPQTIMELFFQEVARKQIISHLFSQPKAPLSQTGLNWPEMITAVTGYLLQLLWPSNPGCLFLECLMGNCQYVQLQDYIQLLHPWCQVNVGSCRFMLGRCYLVTGEVQKALECFCQAASEVGKEEFLDRLIRSEDGEIVSTPKLQYYDKVLRLLDVVGLPELVIQLATSAITEAGDDWKSQATLRTCIFKHHLDLGHNSQAYEALTQIPDSSRQLDCLRQLVVVLCERSQLQDLVEFPYVNLHNEVVGIIESRARAVDLMTHNYYELLYAFHIYRHNYRKAGTVMFEYGMRLGREVRTLRGLEKQGNCYLAAINCLRLIRPEYAWIVQPASGAVSDRPGASPKRNHDGECTAAPTNRQIEILELEDLEKEYSLARIRLTLARHDPSVIAIAGSSSAKEMSALLVQAGLFDTAISLCQTFTLPLTPVFEGLAFKCIKLQFGGEAAQGEAWSWLATNQLSSVITTKESSATDEAWRLLSTYLERYKVQNNLYHHCVINKLLSHGVPLPNWLINSYKKVDAAELLRLYLNYDLLEEAVDLVSEYVDAVLGKGHQYFGIEFPLSATAPMVWLPYSSIDQLLQALGENSANSHNIILSQKILDKLEDYQQKVDKATRDLLYRRDL
binding: binds

B4: NUP50 (protein, UniProt Q9JIH2 1-466)
chain: MAKRVAEKELTDRNWDEEDEVEEMGTFSVASEEVMKNRAVKKAKRRNVGFESDSGGAFKGFKGLVVPSGGGGFSGFGGSGGKPLEGLTNGNSTDNATPFSNVKTAAEPKAAFGSFAVNGPTTLVDKKISSPKCNNSNQPPSSGPASSTACPGNAYHKQLAGLNCSVRDWIVKHVNTNPLCDLTPIFKDYERYLATIEKQLENGGGSSSESQTDRATAGMEPPSLFGSTKLQQESPFSFHGNKAEDTSEKVEFTAEKKSDAAQGATSASFSFGKKIESSALGSLSSGSLTGFSFSAGSSSLFGKDAAQSKAASSLFSAKASESPAGGGSSECRDGEEEENDEPPKVVVTEVKEEDAFYSKKCKLFYKKDNEFKEKGVGTLHLKPTATQKTQLLVRADTNLGNILLNVLIAPNMPCTRTGKNNVLIVCVPNPPLDEKQPTLPATMLIRVKTSEDADELHKILLEKKDA
binding: binds
